No constants are given. Whether binding was seen depends on the method and setting. Some results given as binding are weak or reduced against the parent protein; the word gives no strength.
Columns and labels:
[1] = molecular target: mouse PDGF-C core protein (mouse) (UniProt Q8CI19); assay: immunoblot (FIG. 2B)
[2] = molecular target: mouse PDGF-C core protein (mouse) (UniProt Q8CI19); assay: immunoblot of COS-1 supernatant with mouse PDGF-C core, probed with purified antibody

Sequences of proteins named here, by UniProt entry; tags and fusion partners are left off. A change or cut given only in a name is not applied to a line headed by its entry.
UniProt Q8CI19: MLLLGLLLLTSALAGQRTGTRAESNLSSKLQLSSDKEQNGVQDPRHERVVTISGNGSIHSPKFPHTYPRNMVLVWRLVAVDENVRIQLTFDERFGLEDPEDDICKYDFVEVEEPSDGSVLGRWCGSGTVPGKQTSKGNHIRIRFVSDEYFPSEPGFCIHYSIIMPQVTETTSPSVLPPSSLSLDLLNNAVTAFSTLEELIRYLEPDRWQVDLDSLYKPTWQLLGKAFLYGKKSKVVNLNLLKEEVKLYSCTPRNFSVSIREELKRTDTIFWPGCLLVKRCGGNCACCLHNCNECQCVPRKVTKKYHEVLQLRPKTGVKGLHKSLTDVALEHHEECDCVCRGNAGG

binding [1]: binds | binding [2]: binds
B1: monoclonal antibody 12F5 (antibody, mouse IgG2a, V domains shown)
VH: EVKLEESGGGLVQPGGSRELSCEGSGFTFSGFWMSWVRQTPGKTLEWIGDINSDGSAIIYAPSIKDRFTIFRDNDKSTLYLQMNNVRSEDTATYFCMRWGYYGSNYFDYWGQGTTLTVSS
VL: DVVMTQTPLSLPVSLGDQASISCRSSQSIVHSNGNTYLHWYLQKPGQSPKLLIYRVSNRFSGVPDRFSGSGSGTDFTLKISRVEAEDMGVYYCFQGTHVPFTFGSGTKLEIKR

From US20220275075A1
